We go through 64 compounds from PubChem BioAssay AID493014 (National Center for Advancing Translational Sciences (NCATS), 2011).

The experiment is described as follows: qHTS Assay to Find Inhibitors of Chronic Active B-Cell Receptor Signaling. Particulars: ABC-DLBCL IkBa-CBG/CBR reporter, luminescence ratio (green luciferase fused to IkBa over red control in TMD8 lymphoma cells), 4 h. In a few lines:
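TMD8 human ABC-DLBCL cells with doxycycline-inducible IκBα–green luciferase fusion and unfused red luciferase, in 0.5% FBS medium; compounds up to 46 uM, 4 h at 37C. Green/red luminescence ratio, filter-overlap corrected, fitted to concentration-response curves.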
In general terms: Quantitative high-throughput screening tests each substance at several concentrations.

[1] abbreviates: measured here: CBR red luminescence, cell number.
The mark [2] stands for this setting: measured here: IkBa-CBG green luminescence.

This is one part of the list. Shown are side measurements of this screen, not its main read-out; they come without a call. The list favours compounds with an active or inconclusive main result. Words in brackets tell the shape of the fitted curve; partial curves, single points and poor fits give uncertain potencies.

Broadly, the AC50 is the concentration giving half of the maximal activity seen.

As for `COc1ccc(C(=O)Nc2cc(OC)ccc2OC)cc1`, the AC50 under setting [1] was 3.55 µM [falling, single point]. Still for that read-out and setting: the same measure for `CC(Sc1ccc(Cl)cc1)C(=O)NNC(=O)c1ccccc1O` (stereo not given): 14.1 µM [falling, partial curve, poor fit]; for `O=C(N/N=C/C=C/c1ccccc1)c1cccc(Br)c1`: 2 µM [falling, partial curve, poor fit]; for `Cc1ccc(NC(=O)Cc2ccsc2)cc1S(=O)(=O)N1CCOCC1`: 13 µM [rising, partial curve, poor fit]. Consider `CCc1ccc(C(=O)NNc2cc(Cl)ccc2Cl)cc1`, for which, under setting [1], the AC50 is 35.5 µM [falling, partial curve, poor fit]. For `O=C(c1ccc(F)cc1)c1cn(Cc2ccc(F)cc2)c2cc3c(cc2c1=O)OCCO3`, the AC50 under setting [1] was 1.64 µM [rising, full curve, poor fit]. Still for that read-out and setting: with `O=C1CN(C(=O)CN2CCCC2)C(c2ccccc2)c2cc(Br)ccc2N1` (stereo not given) the figure was 6.51 µM [falling, partial curve, poor fit]; with `CCCOc1cccc(NC(=O)c2cc(C)oc2C)c1`, 22.4 µM [falling, single point]; with `C=CCCC(=O)Nc1nc(C)c(-c2csc(Nc3cccc(OC)c3)n2)s1`, 22.4 µM [falling, partial curve, poor fit]. Same read-out and setting: with `COC(=O)c1scc(C)c1N1C(=O)c2ccccc2C1=O` the figure was 35.5 µM [rising, partial curve, poor fit]; with `CCOC(=O)Cc1csc(NC(=O)c2ccc3ncsc3c2)n1`, 8.91 µM [falling, partial curve]; with `COc1ccccc1C(=O)Nc1nc(-c2ccc(S(=O)(=O)N3CCOCC3)cc2)cs1`, 20.6 µM [falling, partial curve].

Consider `COc1ccc(N2CCN(Cc3nc4c(c(=O)n(C)c(=O)n4C)n3CCc3ccccc3)CC2)cc1`, for which the AC50 under setting [1] was 29.1 µM [rising, single point]. As for `CCC(=O)NCc1cc(-c2nn(C)c(=O)c3ccccc23)ccc1OC`, the AC50 was 35.5 µM [rising, single point] under setting [1] and 6.31 µM [falling, partial curve] under setting [2].

As for `Cn1nnnc1SCc1ccc(C(=O)Nc2nccs2)cc1`, the half-maximal activity concentration (AC50) under setting [1] is 0.651 µM [falling, partial curve, poor fit]. As for `COc1cc([N+](=O)[O-])ccc1NC(=O)CN1CCc2cc(OC)c(OC)cc2C1`, the half-maximal activity concentration (AC50) under setting [1] was 8.91 µM [falling, partial curve]. Still for that read-out and setting: the same measure for `O=C(NCCOc1ccc(F)cc1)C1CCN(S(=O)(=O)c2ccccc2)CC1`: 8.91 µM [rising, partial curve, poor fit]. Same read-out and setting: with `COc1nc(-c2ccccc2)cc(-c2ccccc2)n1` the figure was 20.6 µM [falling, partial curve]. The same measure, in the same setting: the same measure for `Cc1ccccc1C(=O)NNC(=O)c1cccc([N+](=O)[O-])c1`: 3.98 µM [falling, partial curve]. In the case of `CC1CCN(CC(=O)c2c[nH]c3ccccc23)CC1`, the AC50 under setting [1] is 10 µM [falling, partial curve].

For the compound `CCOc1ccc(/C(C)=N/NC(=O)C(OC)c2ccccc2)cc1` (stereo not given), the AC50 under setting [1] was 35.5 µM [rising, single point]. Still for that read-out and setting: with `CCOc1ccc(C(C(=O)NC2CCCC2)N(Cc2ccccc2)C(=O)c2nsc(Cl)c2Cl)cc1` (stereo not given) the figure was 2.06 µM [falling, partial curve, poor fit]; with `NC(=O)CNC1CC(=O)N(CCc2ccccc2)C1=O` (stereo not given), 25.9 µM [rising, single point]. Take `O=C(CCCN1C(=O)/C(=C/c2ccccc2Cl)SC1=S)N1CCOCC1`: the half-maximal activity concentration (AC50) under setting [1] was 14.1 µM [falling, partial curve]. For `CCOc1ccc(C2C(C(=O)c3ccco3)=C(O)C(=O)N2Cc2cccnc2)cc1` (stereo not given), the concentration at half-maximal activity (AC50) under setting [1] is 5.8 µM [rising, single point]. The same measure, in the same setting: with `COC(=O)N1C(=O)[C@@](Cc2ccccc2)(c2ccccc2)N1C(=O)OC` the figure was 2.51 µM [falling, partial curve, poor fit]; with `CC(C)C(NC(=S)NCc1ccccc1)C(=O)O` (stereo not given), 5.17 µM [falling, full curve, poor fit]; with `COc1ccc(N(CC(=O)N/N=C/c2ccc(OC)c(OC)c2)S(=O)(=O)c2ccccc2)cc1`, 35.5 µM [falling, single point]. The same measure, in the same setting: with `CCN1C(=O)C(=O)N(CC(=O)N2CCC(C)Sc3ccccc32)C1=O` (stereo not given) the figure was 25.9 µM [rising, single point]; with `Clc1cccc(-c2nc(NCC3CCCO3)c3ccccc3n2)c1` (stereo not given), 35.5 µM [falling, single point]. The same measure, in the same setting: with `C=CCc1cc(Cl)ccc1OCCOCCN(C)C` the figure was 5.01 µM [falling, full curve]; with `Cc1cc(=O)oc2c(C)c(OCC(=O)N3CCN(c4ccc(F)cc4)CC3)ccc12`, 5.01 µM [rising, single point]; with `Cc1cc(C(=O)Nc2nnc(C(F)(F)F)s2)cs1`, 0.708 µM [falling, full curve]. Regarding `O=C(NCc1ccccn1)Nc1ccccc1`, the half-maximal activity concentration (AC50) under setting [1] was 12.6 µM [falling, partial curve, poor fit].

Consider `Cc1cc(OCCCCNC(C)C)cc(C(C)C)c1`, for which the concentration at half-maximal activity (AC50) under setting [1] was 29.1 µM [falling, single point]. In the case of `CCc1ccc(S(=O)(=O)NCCc2csc3nc(-c4ccccc4)nn23)s1`, the AC50 under setting [1] is 15.8 µM [falling, single point]. Still for that read-out and setting: with `O=C(Nc1nc2cc3c(cc2s1)OCO3)C1CCCCC1` the figure was 2 µM [falling, full curve]; with `CC(C)(C)NCCOc1ccc(Br)cc1`, 13 µM [rising, single point]. Same read-out and setting: with `O=C(CC1C(=O)NCCN1C(=O)Nc1ccc(F)cc1F)Nc1ccc(F)cc1` (stereo not given) the figure was 0.708 µM [falling, partial curve, poor fit]; with `COc1cc(/C=N/NC(=O)c2cc(C3CC3)[nH]n2)ccc1O`, 22.4 µM [falling, single point]; with `COC(=O)COc1ccc(-c2ccccc2)cc1C=O`, 12.6 µM [rising, partial curve].

With `COc1ccc(C)cc1NC(=O)NCc1ccco1`, the AC50 under setting [1] was 5.01 µM [rising, partial curve, poor fit]. Same read-out and setting: with `COc1ccc(CCN(C)C(=O)c2ccc3c(=O)n4c(nc3c2)CCCCC4)cc1OC` the figure was 1.46 µM [rising, full curve]. The same measure, in the same setting: with `Cc1nn(Cc2cccc(C(=O)Nc3ccn(Cc4ccccc4F)n3)c2)c(C)c1[N+](=O)[O-]` the figure was 29.1 µM [rising, single point]; with `CCOc1ccc(Nc2nc3cc(S(=O)(=O)CC)ccc3o2)cc1`, 2.82 µM [rising, full curve, poor fit]; with `COc1cnn(-c2ccccc2)c(=O)c1OC`, 2 µM [rising, full curve, poor fit]. As for `COC(=O)c1ccc(Cn2cc(C(F)(F)F)cc([N+](=O)[O-])c2=O)cc1`, the AC50 under setting [1] was 0.501 µM [falling, full curve, poor fit].

Turning to `Cn1c(=O)c2c(ncn2Cc2ccccc2)n(C)c1=O`, the AC50 under setting [1] was 3.26 µM [falling, full curve, poor fit]. Regarding `O=C(CN1CCCCC1)Nc1nnc(-c2ccccc2)s1`, the AC50 under setting [1] is 35.5 µM [falling, single point]. The same measure, in the same setting: the same measure for `CC(C)[C@@H](N)C(=O)NC[C@H]1O[C@@H](n2cnc3c(N)ncnc32)[C@H](O)[C@@H]1O`: 20.6 µM [rising, partial curve, poor fit]. `COc1ccccc1NS(=O)(=O)c1cccc(C(=O)NNC(=O)c2ccc(=O)[nH]c2)c1`: under setting [2], the concentration at half-maximal activity (AC50) was 18.4 µM [falling, partial curve, poor fit].

As to `O=C(N/N=C/c1ccc(-c2cccc([N+](=O)[O-])c2)o1)c1ccccc1O`, under setting [1], the AC50 was 7.94 µM [falling, partial curve]. Same read-out and setting: the same measure for `NC(=O)c1cc2ccc(O)cc2oc1=NCc1ccccc1`: 32.6 µM [falling, single point]; for `Cc1ccc(C)c(CSCc2nc3ccccc3[nH]2)c1`: 6.31 µM [rising, single point]. Regarding `COC(=O)c1cc(NC(=O)COC(=O)CN2C(=O)C3CC=CCC3C2=O)cc(C(=O)OC)c1` (stereo not given), under setting [1], the AC50 was 2.06 µM [rising, full curve, poor fit]. The same measure, in the same setting: the same measure for `Cc1cccc(NC(=O)C(=O)NCC2CCCO2)c1` (stereo not given): 3.55 µM [falling, full curve, poor fit]; for `CCOc1ccc(-n2c(=S)sc3c(=O)[nH]c(SCC(=O)N4CCC(C)CC4)nc32)cc1`: 29.1 µM [falling, single point]; for `COc1ccccc1CC(=O)N(CCC1=CCCCC1)c1c(N)n(Cc2ccccc2)c(=O)[nH]c1=O`: 16.4 µM [falling, partial curve, poor fit].

With `N/C(=N\OC(=O)CCCOc1ccccc1)c1ccccc1`, the concentration at half-maximal activity (AC50) under setting [1] is 4.11 µM [rising, full curve]. The same measure, in the same setting: with `CC(C)(C)C(=O)c1sc(Nc2ccccc2)nc1N` the figure was 23.1 µM [falling, single point]; with `Cc1ccc(N2C(=O)NC3(CCCCC3)C2=O)cc1`, 11.2 µM [rising, partial curve, poor fit]; with `O=C(CN1C(=O)c2ccccc2S1(=O)=O)N1CCN(c2ccccc2)CC1`, 32.6 µM [falling, single point]. Regarding `C[C@@H]1CN([C@H](C)CO)C(=O)Cc2cc(NS(=O)(=O)c3ccc(Cl)cc3)ccc2O[C@H]1CN(C)Cc1ccc(C(F)(F)F)cc1`, the AC50 under setting [1] was 11.6 µM [falling, partial curve, poor fit]. Same read-out and setting: with `Cc1ccc(NC(=O)c2ccc(NCCN)c([N+](=O)[O-])c2)cc1Cl` the figure was 14.6 µM [falling, partial curve, poor fit].
